The shares of active, inactive and inconclusive entries below differ from those in the screen. Potencies of inconclusive entries are doubtful fits and often do not repeat. The source made the active and inactive calls. The call rests on the fitted dose curve; in most records, active means well fitted inhibition curve with a large enough effect; inconclusive means small, poorly fitted or top-dose-only effect; inactive means no such curve, though single readings can be large or run the other way.
molecular target: 4'-phosphopantetheinyl transferase Sfp (Bacillus subtilis (strain 168)) (UniProt P39135); experiment: qHTS Assay for Inhibitors of Bacillus subtilis Sfp phosphopantetheinyl transferase (PPTase): SAR Round 2; details: purified Sfp enzyme; Potency: PPTase activity; activity change, negative = inhibition: at 57.1 µM (top of the series)
Text: The covalent attachment of a phosphopantetheinyl (4'-PP) arm to a variety of synthases and other proteins is a key posttranslational protein modification. The 4'-PP is installed on the proteins post-translationally from coenzyme A (CoA) on a conserved serine residue by action of phosphopantetheinyl transferase (PPTase) enzymes. Phosphopantetheinylation is essential for synthase activity, and removal of the PPTase gene precludes natural product synthesis in microorganisms, or in the case of fatty acid biosynthesis, renders the organism unviable. PPTase enzymes belong to a distinct structural superfamily. Within bacteria, these enzymes are grouped into two classes based upon primary structure, the AcpS-Type and Sfp-Type PPTases.
Sfp-type PPTases, corresponding to an activator of surfactin production in Bacillus subtilis, are responsible for modifying type I polyketide and nonribosomal peptide synthases of prokaryotes. Sfp-type PPTases are responsible for the activation of a variety of pathogen-associated virulence factors. Among these compounds are toxins such as mycolactone from Mycobacterium ulcerans, siderophores such as vibriobactin from Vibrio cholerae or mycobactin from Mycobacterium tuberculosis, as well as the mycolic acids which form the waxy cell wall of Mycobacteria. The biosyntheses of these natural products are considered attractive targets for drug design.
In search of small molecule Sfp-PPTase inhibitors, a fluorescence quenching assay was developed for detection of Bacillus subtilis Sfp-PPTase enzymatic activity in a miniaturized high-throughput format. The consensus ybbr acceptor peptide […] was N-terminally labeled with Black Hole Quencher-2 (BHQ-2) and used in combination with rhodamine-labeled coenzyme A as a co-substrate.
Inhibition of Sfp-PPTase was detected by recording the fluorescence intensity change over a 30-minute reaction period at a 525 nm excitation and 598 nm emission. Reagents were supplied by Michael Burkart and Timothy Foley, University of California at San Diego.
NIH Chemical Genomics Center [NCGC]
NIH Molecular Libraries Probe Centers Network [MLPCN]
Assay Submitter (PI): Michale Burkart, University of California, San Diego
Assay Buffer: 50 mM Hepes-Na pH 7.6, 10 mM MgCl2, 0.01% Nonidet P-40, and 0.01% BSA.
3 uL of Sfp-PPTase enzyme (final concentration 15 nM) and 1 uL of substrate mixture (final concentration for rhodamine-CoA and BHQ-2-YbbR 5 uM and 12.5 uM, respectively) dispensed in columns 1, 2, 5 - 48. Columns 1 and 2 used to generate neutral control (uninhibited reaction)
Three uL of reagents, consisting of buffer (in columns 3 and 4 as negative control) and Sfp-PPTase (in columns 1, 2, 5 - 48) were dispensed into 1,536-well Greiner black solid bottom plate. Compounds (23 nL) were transferred via Kalypsys pintool equipped with 1,536-pin array. The plate was incubated for 15 min at room temperature, followed by the addition of 1 uL substrate to start the reaction. The plate was then centrifuged at 1000 rpm for 15 seconds, and the fluorescence intensity recorded on a ViewLux High-throughput CCD imager (Perkin-Elmer) using standard BODIPY optics (525 nm excitation and 598 nm emission). The plate was then incubated for 30 minutes, and a second read on the ViewLux was performed. The fluorescence intensity difference over the 30-minute period was used to calculate the respective reaction rate for each well.

Potency, inconclusive:
COc1ccc(NC(=S)N2CCN(c3cccc(C(F)(F)F)c3)CC2)nc1 4.08 µM [inhibitor]
Cc1ccnc(NC(=S)NC2CCN(c3cccc(C(F)(F)F)c3)CC2)c1 9.13 µM [inhibitor]
Cc1ccnc(NC(=S)N[C@H]2CCN(c3cccc(C(F)(F)F)c3)C2)c1 18.2 µM [inhibitor, partial curve]
COc1cccc(NC(=S)N2CCN(c3cc(Cl)cc(Cl)c3)CC2)n1 5.76 µM [inhibitor]
Cc1ccnc(NC(=S)NCCN(C)c2cccc(C(F)(F)F)c2)c1 3.63 µM [inhibitor]
Cc1ccnc(NC(=S)N[C@@H]2CCN(c3cccc(C(F)(F)F)c3)C2)c1 16.2 µM [inhibitor]
FC(F)(F)c1cccc(N2CCN(C(=S)Nc3cnccn3)CC2)c1 16.2 µM [inhibitor]
Cc1ccnc(CC(=S)N2CCN(c3cccc(C(F)(F)F)c3)CC2)c1 5.76 µM [inhibitor]
FC(F)(F)c1cccc(N2CCN(C(=S)Nc3cc(C(F)(F)F)ccn3)CC2)c1 5.13 µM [inhibitor]
Cc1cc(C)nc(NC(=S)N2CCN(c3nccs3)CC2)c1 2.89 µM [inhibitor]
Cc1cc(C)nc(/N=C(\NC#N)N2CCN(c3cccc(C(F)(F)F)c3)CC2)c1 40.8 µM [inhibitor]
Cc1ccnc(N(C)C(=S)N2CCN(c3cccc(C(F)(F)F)c3)CC2)c1 18.2 µM [inhibitor]
Cc1cc(C)nc(NC(=S)N2CCN(Cc3c(F)cccc3Cl)CC2)c1 5.13 µM [inhibitor]
Cc1ccnc(NC(=S)N2CCCc3ccc(C(F)(F)F)cc32)c1 45.7 µM [inhibitor]
Cc1cncc(NC(=S)N2CCN(c3cccc(C(F)(F)F)c3)CC2)c1 36.3 µM [inhibitor]
COc1cccc(NC(=S)N2CCN(c3ccc(Cl)cc3Cl)CC2)n1 1.45 µM [inhibitor]
COc1cccc(NC(=S)N2CCN(c3cccc(C(F)(F)F)n3)CC2)n1 5.13 µM [inhibitor]

Two records picked at random from those above, as already listed:
Potency, inconclusive:
Cc1ccnc(NC(=S)NCCN(C)c2cccc(C(F)(F)F)c2)c1 3.63 µM [inhibitor]
COc1ccc(NC(=S)N2CCN(c3cccc(C(F)(F)F)c3)CC2)nc1 4.08 µM [inhibitor]

Following part.

Potency, active:
Cc1ccnc(NC(=S)N2CCN(c3cc(C(F)(F)F)cc(C(F)(F)F)c3)CC2)c1 0.65 µM
Cc1cc(C)nc(NC(=S)N2CCN(c3ccsc3)CC2)c1 8.13 µM
Cc1ccc(N2CCN(C(=S)Nc3cc(C)ccn3)CC2)cc1 5.13 µM
COc1ccnc(NC(=S)N2CCN(c3cccc(Cl)c3Cl)CC2)c1 1.02 µM
COc1cccc(NC(=S)N2CCN(c3ccc(C(F)(F)F)cc3[N+](=O)[O-])CC2)n1 1.45 µM

Activity change, negative = inhibition, inconclusive:
Cc1ccnc(NC(=S)NC2CN(c3cccc(C(F)(F)F)c3)C2)c1 -24.7% [inhibitor]
FC(F)(F)c1cccc(N2CCN(C(=S)Nc3ccncc3)CC2)c1 -35.4% [inhibitor]
Cc1ccnc(C(=S)N2CCN(c3cccc(C(F)(F)F)c3)CC2)c1 -23.7% [inhibitor]

Activity change, negative = inhibition, inactive:
CSC(Cc1ccc(Cl)cc1)C(=O)Nc1ccc(Cl)cc1C(=O)O (stereo not drawn) 31%
Cc1nc(CN(C)c2ncnc3ccc(-c4ccc5[nH]ncc5c4)cc23)cs1 20.8%
CC(Cc1ccccc1)C(=O)Nc1ccc(Cl)cc1C(=O)O (stereo not drawn) -20.2%

Reference: PubChem BioAssay AID602370 (National Center for Advancing Translational Sciences (NCATS), 2012)
